The other results are listed elsewhere or left out. The data scatter; read single values as rough.

Sequences of proteins named here, by UniProt entry; tags and fusion partners are left off. A change or cut given only in a name is not applied to a line headed by its entry. Residues count along the entry.
UniProt Q9NRW7, 346-371: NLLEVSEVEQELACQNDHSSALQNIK
UniProt Q8NEZ3: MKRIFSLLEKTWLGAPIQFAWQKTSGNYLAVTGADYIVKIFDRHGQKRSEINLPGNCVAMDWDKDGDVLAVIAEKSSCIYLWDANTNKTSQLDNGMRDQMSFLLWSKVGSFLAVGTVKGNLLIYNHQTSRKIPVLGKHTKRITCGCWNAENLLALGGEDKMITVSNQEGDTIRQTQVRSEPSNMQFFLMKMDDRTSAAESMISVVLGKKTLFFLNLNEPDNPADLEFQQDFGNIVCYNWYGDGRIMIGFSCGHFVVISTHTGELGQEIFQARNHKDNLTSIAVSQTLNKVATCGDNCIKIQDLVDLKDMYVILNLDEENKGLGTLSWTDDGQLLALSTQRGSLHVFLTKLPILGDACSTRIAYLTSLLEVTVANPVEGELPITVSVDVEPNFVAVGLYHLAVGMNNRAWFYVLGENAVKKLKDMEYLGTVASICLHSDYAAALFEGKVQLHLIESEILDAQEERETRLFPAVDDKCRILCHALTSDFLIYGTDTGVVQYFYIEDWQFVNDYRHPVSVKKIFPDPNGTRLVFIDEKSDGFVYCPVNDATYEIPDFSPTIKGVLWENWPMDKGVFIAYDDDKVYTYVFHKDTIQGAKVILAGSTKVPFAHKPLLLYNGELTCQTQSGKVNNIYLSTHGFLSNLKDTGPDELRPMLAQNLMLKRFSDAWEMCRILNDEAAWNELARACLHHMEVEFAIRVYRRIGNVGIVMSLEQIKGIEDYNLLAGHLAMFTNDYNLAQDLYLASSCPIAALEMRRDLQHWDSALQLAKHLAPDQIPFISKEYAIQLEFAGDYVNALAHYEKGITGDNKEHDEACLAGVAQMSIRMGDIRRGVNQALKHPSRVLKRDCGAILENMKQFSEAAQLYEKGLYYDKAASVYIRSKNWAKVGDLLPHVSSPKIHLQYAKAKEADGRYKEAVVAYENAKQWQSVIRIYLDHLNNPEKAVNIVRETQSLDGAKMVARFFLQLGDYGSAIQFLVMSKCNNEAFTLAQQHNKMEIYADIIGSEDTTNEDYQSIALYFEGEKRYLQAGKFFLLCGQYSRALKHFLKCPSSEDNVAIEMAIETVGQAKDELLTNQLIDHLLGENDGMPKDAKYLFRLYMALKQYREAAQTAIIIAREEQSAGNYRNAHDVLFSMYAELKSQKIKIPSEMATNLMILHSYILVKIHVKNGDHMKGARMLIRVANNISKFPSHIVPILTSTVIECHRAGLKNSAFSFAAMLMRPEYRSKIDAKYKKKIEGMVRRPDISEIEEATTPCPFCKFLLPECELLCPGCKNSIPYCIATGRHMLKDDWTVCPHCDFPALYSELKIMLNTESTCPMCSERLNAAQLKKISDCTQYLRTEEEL
UniProt Q9H967: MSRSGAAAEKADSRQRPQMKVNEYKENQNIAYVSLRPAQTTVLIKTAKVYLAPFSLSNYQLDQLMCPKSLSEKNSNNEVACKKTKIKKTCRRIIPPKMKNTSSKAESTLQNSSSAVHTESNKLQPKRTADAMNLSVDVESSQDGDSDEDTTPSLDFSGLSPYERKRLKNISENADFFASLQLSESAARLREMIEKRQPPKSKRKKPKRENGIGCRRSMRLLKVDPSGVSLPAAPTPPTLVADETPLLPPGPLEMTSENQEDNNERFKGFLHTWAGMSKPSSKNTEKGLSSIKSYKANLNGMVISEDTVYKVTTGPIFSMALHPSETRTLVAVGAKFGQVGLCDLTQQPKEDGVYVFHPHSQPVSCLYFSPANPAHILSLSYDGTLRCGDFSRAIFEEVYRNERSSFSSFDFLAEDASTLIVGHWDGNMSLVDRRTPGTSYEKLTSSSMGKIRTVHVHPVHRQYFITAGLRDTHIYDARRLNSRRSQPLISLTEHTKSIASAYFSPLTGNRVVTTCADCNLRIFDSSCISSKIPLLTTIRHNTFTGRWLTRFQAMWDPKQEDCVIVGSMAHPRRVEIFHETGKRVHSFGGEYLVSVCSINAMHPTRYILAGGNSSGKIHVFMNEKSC
UniProt Q9ULM3, 332-364: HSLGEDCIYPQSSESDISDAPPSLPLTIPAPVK
UniProt O75083, 490-511: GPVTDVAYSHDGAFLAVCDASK
UniProt Q9HAD4: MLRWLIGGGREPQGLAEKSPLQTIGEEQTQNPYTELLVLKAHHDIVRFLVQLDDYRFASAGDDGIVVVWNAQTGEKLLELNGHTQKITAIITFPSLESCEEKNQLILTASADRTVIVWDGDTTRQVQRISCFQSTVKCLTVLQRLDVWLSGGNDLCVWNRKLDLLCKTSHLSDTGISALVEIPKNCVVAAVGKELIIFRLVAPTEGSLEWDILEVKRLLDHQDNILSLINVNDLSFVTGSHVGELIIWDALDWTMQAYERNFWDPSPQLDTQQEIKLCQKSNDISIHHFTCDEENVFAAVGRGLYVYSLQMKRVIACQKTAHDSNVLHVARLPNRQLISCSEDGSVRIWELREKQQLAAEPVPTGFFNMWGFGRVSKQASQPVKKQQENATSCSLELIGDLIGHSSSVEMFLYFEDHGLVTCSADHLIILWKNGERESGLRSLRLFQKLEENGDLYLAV
UniProt Q9NZC7: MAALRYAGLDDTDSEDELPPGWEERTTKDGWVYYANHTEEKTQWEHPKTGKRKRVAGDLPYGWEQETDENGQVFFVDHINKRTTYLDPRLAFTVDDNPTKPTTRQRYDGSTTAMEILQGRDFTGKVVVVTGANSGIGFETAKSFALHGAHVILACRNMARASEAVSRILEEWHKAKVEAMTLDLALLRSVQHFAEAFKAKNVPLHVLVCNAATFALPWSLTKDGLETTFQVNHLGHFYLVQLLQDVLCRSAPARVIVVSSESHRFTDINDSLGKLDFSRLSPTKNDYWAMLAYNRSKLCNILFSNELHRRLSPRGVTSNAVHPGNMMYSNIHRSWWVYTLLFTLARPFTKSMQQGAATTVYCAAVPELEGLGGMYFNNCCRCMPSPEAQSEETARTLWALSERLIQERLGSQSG
UniProt Q9UBH6: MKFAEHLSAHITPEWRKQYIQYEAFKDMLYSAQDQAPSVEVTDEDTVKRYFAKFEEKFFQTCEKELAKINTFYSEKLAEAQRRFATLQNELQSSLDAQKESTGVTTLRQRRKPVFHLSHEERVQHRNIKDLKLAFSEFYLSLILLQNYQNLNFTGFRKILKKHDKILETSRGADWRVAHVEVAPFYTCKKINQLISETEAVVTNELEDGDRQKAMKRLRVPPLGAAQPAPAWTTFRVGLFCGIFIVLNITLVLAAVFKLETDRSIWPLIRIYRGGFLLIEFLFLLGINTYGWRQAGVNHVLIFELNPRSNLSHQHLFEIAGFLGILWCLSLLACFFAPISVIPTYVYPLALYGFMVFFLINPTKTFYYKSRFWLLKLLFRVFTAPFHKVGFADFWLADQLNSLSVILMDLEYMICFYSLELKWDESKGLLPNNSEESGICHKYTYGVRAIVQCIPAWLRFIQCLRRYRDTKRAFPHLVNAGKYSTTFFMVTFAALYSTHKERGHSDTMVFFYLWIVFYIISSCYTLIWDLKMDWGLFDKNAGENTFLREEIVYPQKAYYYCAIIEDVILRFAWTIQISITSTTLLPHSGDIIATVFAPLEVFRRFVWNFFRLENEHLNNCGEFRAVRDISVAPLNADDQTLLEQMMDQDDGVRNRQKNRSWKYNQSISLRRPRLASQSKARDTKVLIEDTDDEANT
UniProt Q7Z5K2, 951-970: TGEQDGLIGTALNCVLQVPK
UniProt P61981: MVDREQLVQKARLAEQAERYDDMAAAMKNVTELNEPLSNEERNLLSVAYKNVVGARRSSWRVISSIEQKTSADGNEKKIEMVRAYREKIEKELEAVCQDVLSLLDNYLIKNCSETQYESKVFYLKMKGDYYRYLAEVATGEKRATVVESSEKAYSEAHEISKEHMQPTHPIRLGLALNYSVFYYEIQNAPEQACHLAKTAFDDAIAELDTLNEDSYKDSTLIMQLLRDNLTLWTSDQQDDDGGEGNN
UniProt Q9Y2I8: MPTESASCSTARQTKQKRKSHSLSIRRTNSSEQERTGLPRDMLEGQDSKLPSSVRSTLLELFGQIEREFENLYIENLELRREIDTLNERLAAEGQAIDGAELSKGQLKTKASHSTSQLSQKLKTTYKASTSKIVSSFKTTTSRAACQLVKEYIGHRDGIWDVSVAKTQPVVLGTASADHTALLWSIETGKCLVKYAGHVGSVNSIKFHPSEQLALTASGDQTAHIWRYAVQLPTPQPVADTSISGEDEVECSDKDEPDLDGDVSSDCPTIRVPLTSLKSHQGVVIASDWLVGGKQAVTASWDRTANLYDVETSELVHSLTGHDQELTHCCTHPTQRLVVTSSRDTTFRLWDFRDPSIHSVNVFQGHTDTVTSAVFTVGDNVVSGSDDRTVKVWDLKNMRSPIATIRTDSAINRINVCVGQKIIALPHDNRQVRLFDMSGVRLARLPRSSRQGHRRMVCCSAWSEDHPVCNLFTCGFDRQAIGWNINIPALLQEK
UniProt Q9BW85: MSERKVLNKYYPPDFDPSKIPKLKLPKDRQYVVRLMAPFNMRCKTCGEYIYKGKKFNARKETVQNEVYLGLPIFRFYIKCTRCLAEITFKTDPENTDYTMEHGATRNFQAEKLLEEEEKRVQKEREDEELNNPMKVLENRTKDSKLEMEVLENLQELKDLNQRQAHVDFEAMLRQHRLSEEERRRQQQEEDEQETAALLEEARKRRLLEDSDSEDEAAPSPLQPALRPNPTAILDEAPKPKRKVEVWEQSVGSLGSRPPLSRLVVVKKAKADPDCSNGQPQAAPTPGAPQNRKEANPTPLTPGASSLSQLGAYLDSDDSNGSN
UniProt Q8N1B4: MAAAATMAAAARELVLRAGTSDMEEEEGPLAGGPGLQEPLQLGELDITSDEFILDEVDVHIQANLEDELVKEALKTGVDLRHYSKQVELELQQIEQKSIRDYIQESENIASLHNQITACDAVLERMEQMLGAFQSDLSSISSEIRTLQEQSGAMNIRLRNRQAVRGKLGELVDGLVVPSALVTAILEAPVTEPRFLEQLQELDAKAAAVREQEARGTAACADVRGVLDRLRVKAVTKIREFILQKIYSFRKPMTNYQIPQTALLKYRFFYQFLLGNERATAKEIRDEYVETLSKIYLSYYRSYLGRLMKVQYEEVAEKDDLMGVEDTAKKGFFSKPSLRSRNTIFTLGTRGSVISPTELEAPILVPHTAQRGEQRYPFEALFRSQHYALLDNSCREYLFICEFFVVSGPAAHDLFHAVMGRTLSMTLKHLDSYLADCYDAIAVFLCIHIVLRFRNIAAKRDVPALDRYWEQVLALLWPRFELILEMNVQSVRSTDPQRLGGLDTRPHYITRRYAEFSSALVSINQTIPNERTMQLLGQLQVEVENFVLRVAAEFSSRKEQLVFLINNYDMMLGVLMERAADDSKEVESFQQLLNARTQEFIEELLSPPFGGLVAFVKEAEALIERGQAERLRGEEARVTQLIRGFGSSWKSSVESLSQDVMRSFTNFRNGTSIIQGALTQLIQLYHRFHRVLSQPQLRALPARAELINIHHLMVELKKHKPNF

Compound in this experiment: ClCC(=O)N[C@H]1CCCc2ccccc12
Kind of experiment: log2 mean competition ratio of IA-DTB cysteine labelling (DMSO/compound) (log2 ratio); higher = stronger cysteine engagement by compound. To be noted: 200 µM; treatment time: 4 h; cell line lysate: HEK293T. As to the method: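 IA-DTB competitive cysteine chemoproteomics in HEK293T RIPA lysate. Lysates were treated with compound 29 or 30 at 50 or 200 µM for 4 h, then IA-DTB (500 µM, 1 h), trypsin-digested, NeutrAvidin-enriched and analysed by diaPASEF. Competition ratio = intensity DMSO / intensity compound (n=4 treated, n=64 DMSO); binding: mean log2 CR ≥ 1 and p ≤ 0.05 plus QC filters. Target is the cysteine site.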
VPS45 C359 (UniProt Q9NRW7): the “log2 mean competition ratio” value was -0.535.

On to XPO5 C605 (UniProt Q9HAV4), for which the “log2 mean competition ratio” value was -0.22.

On to ZBTB11 C197 (UniProt O95625), for which the “log2 mean competition ratio” value was -0.0893.

For the target WNK2 C2051 (UniProt Q9Y3S1), the “log2 mean competition ratio” value came to 0.117.

As for WDR19 C979 (UniProt Q8NEZ3), the “log2 mean competition ratio” value was -0.157.

Consider WDR76 C81 (UniProt Q9H967), for which the “log2 mean competition ratio” value worked out at 0.139.

For the target WNK2 C1635 (UniProt Q9Y3S1), the “log2 mean competition ratio” value was -0.0966.

Turning to YEATS2 C338 (UniProt Q9ULM3), the “log2 mean competition ratio” value is -0.26.

In the case of WWC3 C158, the “log2 mean competition ratio” value stood at 0.0642.

Turning to VPS50 C430 (UniProt Q96JG6), the “log2 mean competition ratio” value is -0.156.

Regarding WDR1 C507 (UniProt O75083), the “log2 mean competition ratio” value came out at 0.108.

Take WDR62 C707 (UniProt O43379): the “log2 mean competition ratio” value was -0.16.

WDR41 C166 (UniProt Q9HAD4): the “log2 mean competition ratio” value is -0.0712.

In the case of WDR75 C12 (UniProt Q8IWA0), the “log2 mean competition ratio” value came to 0.0564.

With WWOX C382 (UniProt Q9NZC7), the “log2 mean competition ratio” value turned out to be 0.0648.

XRCC3 C221 (UniProt O43542): the “log2 mean competition ratio” value was -0.0332.

Regarding XPR1 C188 (UniProt Q9UBH6), the “log2 mean competition ratio” value came to 0.421.

Turning to WRN C1115 (UniProt Q14191), the “log2 mean competition ratio” value stood at 0.0178.

With WAPL C964 (UniProt Q7Z5K2), the “log2 mean competition ratio” value is -0.0953.

For the target YWHAG C112 (UniProt P61981), the “log2 mean competition ratio” value is -0.302.

For the target WAPL C1190 (UniProt Q7Z5K2), the “log2 mean competition ratio” value is 0.0407.

Take WDFY3 C36 (UniProt Q8IZQ1): the “log2 mean competition ratio” value was -0.102.

On to WDR37 C8 (UniProt Q9Y2I8), for which the “log2 mean competition ratio” value is -0.211.

On to WIZ C1279 (UniProt O95785), for which the “log2 mean competition ratio” value is -0.144.

As to YJU2 C83 (UniProt Q9BW85), the “log2 mean competition ratio” value is -0.196.

On to VPS35L C588 (UniProt Q7Z3J2), for which the “log2 mean competition ratio” value was -0.19.

Regarding VPS52 C220 (UniProt Q8N1B4), the “log2 mean competition ratio” value turned out to be 0.223.

The record behind these values is the supplement of paper PMC11732987, “Enantioselective OTUD7B fragment discovery through chemoproteomics screening and high-throughput optimisation” (Communications Chemistry, 2025).
